# Experimental data published in PubChem BioAssay AID1671190 (National Center for Advancing Translational Sciences (NCATS), 2021).
# Sequences of proteins named here, by UniProt entry; tags and fusion partners are left off.
# UniProt P18054, whole entry, looked up: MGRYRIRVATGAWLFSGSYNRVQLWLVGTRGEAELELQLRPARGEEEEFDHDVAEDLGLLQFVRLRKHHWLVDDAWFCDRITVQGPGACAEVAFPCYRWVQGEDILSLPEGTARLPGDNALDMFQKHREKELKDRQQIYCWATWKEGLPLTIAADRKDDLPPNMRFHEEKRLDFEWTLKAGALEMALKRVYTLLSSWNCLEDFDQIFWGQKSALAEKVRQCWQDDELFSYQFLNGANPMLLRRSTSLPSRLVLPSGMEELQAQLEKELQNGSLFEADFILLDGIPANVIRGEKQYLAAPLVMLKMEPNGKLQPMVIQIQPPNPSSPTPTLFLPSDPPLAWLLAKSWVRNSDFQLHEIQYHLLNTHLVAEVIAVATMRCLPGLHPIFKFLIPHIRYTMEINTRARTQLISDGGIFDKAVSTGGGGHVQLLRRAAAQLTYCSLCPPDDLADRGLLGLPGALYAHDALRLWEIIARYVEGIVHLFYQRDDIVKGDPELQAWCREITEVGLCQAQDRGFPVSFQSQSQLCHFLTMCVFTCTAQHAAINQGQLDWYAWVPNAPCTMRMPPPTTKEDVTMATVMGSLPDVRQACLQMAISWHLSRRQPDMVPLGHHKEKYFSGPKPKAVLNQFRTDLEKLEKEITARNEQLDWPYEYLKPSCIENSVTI
# “And” between values parts separate entries of the source, which are not always exact repeats. Equal values may be shown once. Hit rate of the full screen: of about 580,000 compounds, about 6,100 (1.1%) were called active. Inconclusive means that the source gave no clear call. Such entries were picked first, then a sample of the others. Calls follow the shape of the dose curve; as a rule, active = well fitted inhibition curve with a large enough effect; inconclusive = small, poorly fitted or top-dose-only effect, or another doubt; inactive = no such curve, though single readings can be large or run the other way. Potencies beside an inconclusive call are fits to weak or partial responses and may not hold up.
# Molecular target: Polyunsaturated fatty acid lipoxygenase ALOX12 (Homo sapiens) (UniProt P18054)
# Assay: Primary qHTS assay for inhibitors of human arachidonate 12S-lipoxygenase (ALOX12): Round 2
# Conditions: purified 12hLO, xylenol orange hydroperoxide absorbance; activity change, negative = inhibition: at 108 µM (top of the series) unless noted
# In short: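 Purified human 12hLO at 150 nM in 25 mM Hepes, 0.01% Triton X-100, pH 7.0, preincubated 15 min at room temperature with compound. Reaction started with 40 uM arachidonic acid, 30 min at room temperature. Hydroperoxide measured by Fe-xylenol orange, 573/405 nm absorbance ratio.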
# % is scaled to controls: 0 for no effect and ±100 for the full control effect; potency is read from the fitted curve at half-maximal effect.
Compound,Potency,"activity change, negative = inhibition"
COc1cc(C(=O)Nc2ccc(NC(=O)C(C)C)nc2)cc(OC)c1OC,"inconclusive: 10 µM [inhibitor, partial curve]",–
COCCNc1nnc(SCC(=O)Nc2sc3c(c2C(=O)c2ccccc2)CCCC3)s1,–,inactive: -16.7%
COc1cccc(Cn2c(=O)c3sccc3n(CC(=O)N(C)C3CCCCC3)c2=O)c1,"inconclusive: 31.6 µM [inhibitor, partial curve, poor fit]",–
Cc1ccc(C)c(S(=O)(=O)N2CCN(Cc3ccc(O)c4ncccc34)CC2)c1,"inconclusive: 6.31 µM [inhibitor, full curve, poor fit]",–
OC(CNCc1ccco1)Cn1c2ccc(Br)cc2c2cc(Br)ccc21 (stereo unspecified),active: 6.31 µM,–
COc1ccc(CCNC(=O)CCCn2c(=O)c3ccccc3n(Cc3cccc(Cl)c3)c2=O)cc1OC,"inconclusive: 112 µM [inhibitor, partial curve, poor fit]",–
CC[C@]12c3[nH]c4ccc(Cl)cc4c3CCN1C(=O)[C@@H](CC(=O)NCC13CC4CC(CC(C4)C1)C3)C[C@@H]2C(=O)N1CCN(C(=O)c2ccco2)CC1,"inconclusive: 3.16 µM [inhibitor, full curve, poor fit]",–
COCCCn1c(SCC(=O)Nc2sc3c(c2C#N)CCCC3)nnc1-c1ccncc1,"inconclusive: 39.8 µM [inhibitor, partial curve, poor fit]",–
COc1ccc(CCNC(=O)CN2C(=O)NC3(CCOCC3)C2=O)cc1OC,"inconclusive: 5.01 µM [inhibitor, full curve, poor fit]",–
CC1(C)Cc2c(C#N)c(N)sc(=S)c2CO1,"inconclusive: 12.6 µM [inhibitor, full curve, poor fit]",–
CCCC(c1nnnn1C(C)(C)C)N1CCN(Cc2ccccc2OC)CC1 (stereo unspecified),"inconclusive: 28.2 µM [inhibitor, partial curve, poor fit]",–
CCOC(=O)c1ccc2[nH]c(CSCC(=O)Nc3cccc(Cl)c3C)cc(=O)c2c1,–,inactive: -5.27%
CC(C(=O)Nc1ccc2c(c1)OCCO2)c1ccc([N+](=O)[O-])cc1 (stereo unspecified),–,inactive: -4.7%
COc1ccc2nc(C)c(C(N)=O)cc2c1,–,inactive: 59.6%
CCn1c(SC)nnc1C1CCN(S(=O)(=O)c2ccc(OC)cc2)CC1,–,inactive: 0%
FC(F)(F)c1ccccc1N/N=C1/CCc2ccccc21,active: 10 µM,–
CN(CC(=O)Nc1c(Cl)cccc1Cl)C(=O)CNC(=O)c1sc2ccccc2c1Cl,"inconclusive: 141 µM [inhibitor, single point]",–
CC1(C)CCCC(C)(C#CCN2CCCCC2c2cccnc2)O1 (stereo unspecified),–,inactive: -6.1%
N#Cc1nc(-c2ccccc2Cl)oc1N1CCCCC1,"inconclusive: 35.5 µM [inhibitor, single point] and inconclusive: 50.1 µM [inhibitor, partial curve, poor fit]",–
Cc1ccc(OCC(=O)N2CCC(C)CC2)c([N+](=O)[O-])n1,"inconclusive: 89.1 µM [inhibitor, single point]",–
CCOc1ccccc1N1CCN(Cc2cn[nH]c2-c2ccc(F)cc2)CC1,"inconclusive: 112 µM [inhibitor, single point]",–
Cc1noc(C)c1S(=O)(=O)N(CC(=O)NCc1ccc2c(c1)OCO2)c1ccc(C(C)C)cc1,–,inactive: 8.76%

# Copied from the results shown, two compounds:
Compound,Potency,"activity change, negative = inhibition"
CN(CC(=O)Nc1c(Cl)cccc1Cl)C(=O)CNC(=O)c1sc2ccccc2c1Cl,"inconclusive: 141 µM [inhibitor, single point]",–
CC1(C)CCCC(C)(C#CCN2CCCCC2c2cccnc2)O1 (stereo unspecified),–,inactive: -6.1%

# Next compounds.

Compound,Potency,"activity change, negative = inhibition"
CCCn1c(SCc2nc(-c3ccc(OC)cc3OC)no2)nnc1-c1ccc(Cl)cc1,"inconclusive: 112 µM [inhibitor, partial curve, poor fit]",–
CCOc1ccc(CCN2C(=S)N([C@@H](Cc3ccc(O)cc3)CN3CCC[C@@H]3CN3C(=S)NC[C@@H]3CC(C)C)C[C@@H]2Cc2ccc(O)cc2)cc1,"inconclusive: 44.7 µM [inhibitor, partial curve, poor fit]",–
CC(C)Cn1cnc2c1c(=O)n(CC(=O)NCc1ccc(Cl)cc1)c(=O)n2Cc1ccccc1,"inconclusive: 50.1 µM [inhibitor, partial curve]",–
Cc1cc(NC(=O)c2ccc(Cl)c(S(=O)(=O)N3CCOCC3)c2)no1,"inconclusive: 141 µM [inhibitor, single point]",–
CCN(CC)CCN1C(=O)C(O)=C(C(=O)c2cccs2)C1c1ccc(C)o1 (stereo unspecified),–,inactive: -8.17%
COC(=O)C(Cc1cnc(Cl)s1)(C(=O)OC)c1ccc(C(F)(F)F)cc1[N+](=O)[O-],"inconclusive: 35.5 µM [inhibitor, partial curve, poor fit]",–
COC(=O)N1CCCCC1c1cc(C(=O)NCc2ccc(F)cc2)no1 (stereo unspecified),–,inconclusive: -32.2% [inhibitor]
Cn1c(=O)c2c(nc(NCc3ccco3)n2C)n(C)c1=O,–,inactive: -12.7%
CCN(CC)CCCC(C)NC(=O)c1cc(=O)c2ccccc2o1 (stereo unspecified),"inconclusive: 39.8 µM [inhibitor, partial curve, poor fit]",–
CCC(=O)N1c2nc(-c3ccco3)nn2C2(CCCCC2)[C@@H]2CCCC[C@@H]21,"inconclusive: 20 µM [inhibitor, partial curve, poor fit]",–
COc1ccc(C2/C=C\CN(S(=O)(=O)c3ccc(C)cc3)CC(=O)N2Cc2ccc(F)cc2)cc1 (stereo unspecified),"inconclusive: 44.7 µM [inhibitor, partial curve, poor fit]",–
O=C(N[C@@H]1CC[C@H](CCn2cc(-c3ccccn3)nn2)O[C@@H]1CO)c1ccncc1,"inconclusive: 4.47 µM [inhibitor, full curve, poor fit]",–
CCS(=O)(=O)N1CCc2cc(C(=O)Nc3cccc(Cl)c3C)ccc21,–,inactive: -7.91%
COC(=O)/C=C1/N/C(=N\c2nc(C)cc(C)n2)N(c2ccc(C)c(C)c2)C1=O,"inconclusive: 3.98 µM [inhibitor, full curve, poor fit]",–
CCc1noc(CN2CCC3(CC2)CC(=O)N(CCCc2ccccc2)C3)n1,–,inactive: 26.8%
N#Cc1ccc(CS(=O)(=O)NCc2ccccc2)cc1,–,inactive: 7.67%
CC1CCCCC1NC(=S)NC(=O)c1ccccc1Br (stereo unspecified),"inconclusive: 28.2 µM [inhibitor, partial curve, poor fit]",–
CCCCC(c1nnnn1CC1CCCO1)N1CCN(c2cc(Cl)ccc2C)CC1 (stereo unspecified),"inconclusive: 35.5 µM [inhibitor, partial curve, poor fit]",–
Clc1ccccc1CSc1nnc(-c2ccncc2)o1,"inconclusive: 112 µM [inhibitor, partial curve, poor fit]",–
Cc1cccc(-n2c(C)c(C)c3c2ncn2nc(-c4ccncc4)nc32)c1C,–,inactive: 9%
O=C1CCC2(CNC(=O)c3cnccn3)CCCC=C2N1 (stereo unspecified),–,inactive: 43%
O=C(NCc1ccc(Cl)cc1)C1CCC(CNc2c(N3CCCC3)c(=O)c2=O)CC1 (stereo unspecified),–,inactive: -13.5%

Compound,Potency,"activity change, negative = inhibition"
COc1ccccc1NC(=O)c1cc(-c2ccc(C)o2)nc2ccccc12,"inconclusive: 5.01 µM [inhibitor, full curve, poor fit]",–
CN(C)CCCn1c(=S)[nH]c2ccccc2c1=O,–,inactive: -20.4%
O=C(/C=C/c1ccc([N+](=O)[O-])cc1)N(c1ccccn1)C1CCCCC1,"inconclusive: 2 µM [inhibitor, full curve, poor fit]",–
Cc1cc(C(=O)COC(=O)c2nccnc2N)c(C)n1C1CC1,"inconclusive: 0.501 µM [inhibitor, full curve, poor fit]",–
Cc1ccccc1NC(=O)CCc1ccnc(N2CCCC2)c1,–,inactive: -10.9%
CCCOc1cccc(C2C(C(=O)c3cc4ccccc4o3)=C(O)C(=O)N2c2cc(C)on2)c1 (stereo unspecified),"inconclusive: 44.7 µM [inhibitor, partial curve, poor fit]",–
Cc1nc2[nH]c(=S)[nH]c2cc1Br,active: 12.6 µM,–
C=CCNCCOc1ccc(C(C)(C)c2ccccc2)cc1,"inconclusive: 0.562 µM [inhibitor, full curve, poor fit]",–
Cc1cccc2nc(CSc3nnc(N4CCCC4)n3-c3cccc(Cl)c3)cn12,–,inactive: 1.69%
COc1ccc(-n2nnnc2SCC(=O)Nc2ccccc2N2CCOCC2)cc1OC,–,inactive: -4.58%
O=C(c1nc2sccn2c1Br)N1CCOCC1,"inconclusive: 89.1 µM [inhibitor, partial curve]",–
CN(CC(=O)NCCc1ccc(F)cc1)Cc1ccccc1,"inconclusive: 126 µM [inhibitor, partial curve, poor fit]",–
COc1cc(F)cc(-c2ccc(COc3ccc4c(cnn4CCC(=O)O)c3)cc2)c1,active: 28.2 µM,–
Cc1cc(C)c2c(CC(=O)Nc3ccc(Cl)cn3)coc2c1,"inconclusive: 0.178 µM [inhibitor, full curve, poor fit]",–
COc1ccc(/C=C/c2ccc(=O)n(Cc3ccccc3)n2)cc1,"inconclusive: 141 µM [inhibitor, single point]",–
CCCOc1ccc(N2C(=O)CC(N3CCCC(C(=O)N4CCCC4)C3)C2=O)cc1 (stereo unspecified),–,inactive: 320%
Cc1ccc(NC(=O)c2cc(-c3cc(F)ccc3OCC3CCCO3)n[nH]2)cc1NS(C)(=O)=O (stereo unspecified),"inconclusive: 35.5 µM [inhibitor, partial curve, poor fit]",–
Cc1ccc(CSCc2ccc(C(=O)NCCc3ccc(Cl)cc3)o2)cc1,"inconclusive: 56.2 µM [inhibitor, partial curve, poor fit]",–
COc1ccccc1N1CCN(CC(=O)Nc2ccc3c(c2)OCCO3)CC1,"inconclusive: 6.31 µM [inhibitor, full curve, poor fit]",–
CC(C)(C)c1ccc(/C=N/NC(=O)Cc2ccccc2)cc1,–,inactive: 5.76%
NC(=O)COC(=O)c1c2c(nc3ccccc13)CCC2,"inconclusive: 50.1 µM [inhibitor, partial curve, poor fit]",–
CC(=O)N1CCc2cc(N=NC3=C(O)CC(C)(C)CC3=O)ccc21,"inconclusive: 39.8 µM [inhibitor, partial curve, poor fit]",–
